From PubChem BioAssay AID198 (DTP/NCI, 2004)
The list is a part of this screen's results and no random one: it is rich in T/C values a quarter to a half above the control, in often repeated tests (any T/C) and in doses without a T/C. Other doses and runs of a compound stand elsewhere. T/C gives the treated animals as a percentage of the vehicle group. Some doses have a count of surviving animals in place of a T/C: the source files T/C as zero there, which appears to mark a toxic dose or a test without result, not a measured value. Some doses without a T/C left all or most animals alive at the check, yet need not have been tolerated: the source hardly ever lists a survival T/C far under the control, and the zero likely stands for such cases as well. Counts of survivors are from the toxicity check (mostly the fifth day) where no day follows; animals may have died later. Schedules are NCI's codes, read here as Q, the interval in days (D) or hours (H), X, the number of doses. Some entries hold several experiments; the values are given in rising order. For survival time, this PubChem deposit counts one and a half times the control or more as active, and values a quarter to a half above the control carry no call in these data; other NCI protocols may use other cut-offs. Some T/C values carry the count of animals alive at the toxicity check (mostly the fifth day); where none is given, no animal had died by that day. *1 amine or outer side, *2 acyl side, *3 side chain or, on linkers, in order; H or OH if unused. Where a SMILES comes first, the peptide text is derived from it. Bridges are numbered along the chain shown (N, C = ends). Roman numbers before positions name the chains, in order. [ ]: non-standard residue; d: D form. Actinocin(9to1) = Cc1c2oc3c(C)ccc(C(=O)[*:1])c3nc-2c(C(=O)[*:2])c(N)c1=O; aThr = C[C@H](O)[C@H](N)C(=O)O; NMeV = CN[C@H](C(=O)O)C(C)C; Sar = CNCC(=O)O

Tested on: B16 melanoma ip, C57BL/6 mice, median survival T/C
Experiment: NCI In Vivo Anticancer Drug Screen. Data for tumor model B16 Melanoma (intraperitoneal) in C57BL/6 mice
Settings: T/C endpoint: median survival time, higher T/C = longer survival
Method: The antitumor activity of compounds was measured in mice bearing transplantable tumors. Survival or tumor size were measured and the results are expressed as the measurement made in the treated group (T) divided by the measurement made in the vehicle treated control group (C). The tumor model used in this assay is B16 Melanoma (intraperitoneal) in C57BL/6 mice

[1] = dose: 25.0 mg/kg/injection, schedule: Q01DX009 (ip), vehicle: saline
[2] = dose: 50.0 mg/kg/injection, schedule: Q01DX009 (ip), vehicle: saline
[3] = dose: 100.0 mg/kg/injection, schedule: Q01DX009 (ip), vehicle: saline
[4] = dose: 200.0 mg/kg/injection, schedule: Q01DX009 (ip), vehicle: saline

## CN(C)/N=N/c1nc[nH]c1C(N)=O
[1]
  T/C: 126 % of control
[2]
  T/C: 146 % of control
[3]
  T/C: 133 % of control
[4]
  T/C: 130 % of control
  survivor count: 10 of 10

## COc1cc(N(CCCl)CCCl)ccc1NC(=O)c1ccccc1
dose: 12.5 mg/kg/injection, schedule: Q01DX009 (ip), vehicle: saline
  T/C: 145 % of control

## Cc1c2oc3c(C)ccc(C(=O)N[C@@H]4C(=O)N[C@H](C(C)C)C(=O)N5CCC[C@H]5C(=O)N(C)CC(=O)N(C)[C@@H](C(C)C)C(=O)O[C@H]4C)c3nc-2c(C(=O)N[C@@H]2C(=O)N[C@H](C(C)C)C(=O)N3CCC[C@H]3C(=O)N(C)CC(=O)N(C)[C@@H](C(C)C)C(=O)O[C@H]2C)c(N)c1=O (I: [aThr][dV]P[Sar][NMeV] / II: [aThr][dV]P[Sar][NMeV]; ester I:1-I:C, II:1-II:C; linker I:N-II:N via Actinocin(9to1))
dose: 0.03 mg/kg/injection, schedule: Q01DX009 (ip), vehicle: saline
  T/C: 139 % of control
dose: 0.1 mg/kg/injection, schedule: Q01DX009 (ip), vehicle: saline
  survivor count: 10 of 10
dose: 0.2 mg/kg/injection, schedule: Q01DX009 (ip), vehicle: saline
  survivor count: 10 of 10

## S=c1nc[nH]c2nc[nH]c12
dose: 60.0 mg/kg/injection, schedule: Q01DX009 (ip), vehicle: saline
  survivor count: 10 of 10

## OC1CCCC2CCC[N-]C12.OC1CCCC2CCC[N-]C12.[O]=[V][OH] (stereo not given)
dose: 50.0 mg/kg/injection, schedule: Q01DX009 (ip), vehicle: saline with Tween-80
  survivor count: 2 of 6

## CN1Cc2c(ccc3c2OCO3)[C@@H]2[C@H](O)Cc3cc4c(cc3[C@@H]21)OCO4
dose: 500.0 mg/kg/injection, schedule: Q01DX009 (ip), vehicle: saline with Tween-80
  survivor count: 5 of 6

## CC1OC(O[C@@H]2C=C3CC[C@@H]4[C@H](CC[C@]5(C)[C@@H](c6ccc(=O)oc6)CC[C@]45O)[C@@]3(C)CC2)C(O)C(O)C1O (stereo not given in full)
dose: 10.0 mg/kg/injection, schedule: Q01DX001 (sc), vehicle: steroid suspending solution
  survivor count: 4 of 10
dose: 10.0 mg/kg/injection, schedule: Q01DX009 (sc), vehicle: steroid suspending solution
  survivor count: 9 of 10
dose: 20.0 mg/kg/injection, schedule: Q01DX001 (sc), vehicle: steroid suspending solution
  survivor count: 0 of 10
dose: 20.0 mg/kg/injection, schedule: Q01DX009 (sc), vehicle: steroid suspending solution
  survivor count: 5 of 10
dose: 40.0 mg/kg/injection, schedule: Q01DX001 (sc), vehicle: steroid suspending solution
  survivor count: 2 of 10
dose: 80.0 mg/kg/injection, schedule: Q01DX001 (sc), vehicle: steroid suspending solution
  survivor count: 0 of 10

## Nc1ncnc2c(C3OC(CO)C(O)C3O)[nH]nc12 (stereo not given)
dose: 15.6 mg/kg/injection, schedule: Q01DX009 (ip), vehicle: saline
  T/C: 147 % of control
dose: 32.0 mg/kg/injection, schedule: Q01DX009 (ip), vehicle: saline
  survivor count: 10 of 10
dose: 62.5 mg/kg/injection, schedule: Q01DX009 (ip), vehicle: saline
  survivor count: 10 of 10
dose: 64.0 mg/kg/injection, schedule: Q01DX009 (ip), vehicle: saline
  survivor count: 10 of 10
dose: 125.0 mg/kg/injection, schedule: Q01DX009 (ip), vehicle: saline
  survivor count: 8 of 10

## CCCC/C=C/CCCCCCCC(=O)OCCCCCCCCCCCCCCCC
dose: 800.0 mg/kg/injection, schedule: Q01DX001 (ip), vehicle: saline with Tween-80
  survivor count: 4 of 4 on day 2
dose: 1600.0 mg/kg/injection, schedule: Q01DX001 (ip), vehicle: saline with Tween-80
  survivor count: 4 of 4 on day 2
dose: 3200.0 mg/kg/injection, schedule: Q01DX001 (ip), vehicle: saline with Tween-80
  survivor count: 4 of 4 on day 2

## O=C1CN=C(c2ccc[nH]2)c2cc(Cl)ccc2N1
dose: 400.0 mg/kg/injection, schedule: Q01DX009 (ip), vehicle: saline with Tween-80
  survivor count: 6 of 6

## Nc1nc2ncc(CNc3ccc(C(=O)NC(CCC(=O)O)C(=O)O)cc3)nc2c(=O)[nH]1 (stereo not given)
[2]
  survivor count: 10 of 10
[3]
  survivor count: 8 of 10 and 10 of 10

## CC1=C2C(=C[C@@](C)(CO)[C@@H]2O)C(=O)[C@](C)(O)C12CC2
dose: 0.4 mg/kg/injection, schedule: Q01DX009 (ip), vehicle: saline
  T/C: 126 % of control
dose: 0.8 mg/kg/injection, schedule: Q01DX009 (ip), vehicle: saline
  survivor count: 10 of 10

## CCSCCC(N)C(=O)O (stereo not given)
dose: 400.0 mg/kg/injection, schedule: Q01DX009 (ip), vehicle: saline
  survivor count: 8 of 10

## NC(=O)Oc1cc(OC(N)=O)cc(N(CCCl)CCCl)c1
[1]
  T/C: 130 % of control [9 of 10 alive]
[3]
  T/C: 142 % of control [7 of 10 alive]
[4]
  survivor count: 9 of 10
